Source: patent JP2016182135A
No constants are given. Whether binding was seen depends on the method and setting. Some entries that bind do so weakly or less than the wild type.

Biological target: ヒトHER2受容体 (human) (UniProt P04626)
Assay: binding confirmed; method not told there

binding	Binder
binds	抗体4518 (antibody, V domains shown) VH: EVQLQQSGADLVKPGASVKLSCTTSGFNIKDIFIHWVKERPEQGLEWIGRIDPANDNPKYDPKFQGKATISADTSSNTAYLRLSSLTSEDTAVYYCAGGPAYFDYWGQGTTLTVS VL: DIVMTQSHKFMSTSVGDRVSISCKASQDVIAAVTWYQQKPGQSPKLLIYWASTRHTGVPDRFTGSGSGTDYTLTISSMQAEDLALYYCQQHYSTPWTFGGGTKLEIKR
binds	抗体4385 (antibody, V domains shown) VH: QVTLKESGAELMKPGASVKLSCKATGYTFTGYWIEWVKQRPGHGLEWIGEILPGSGSTNYNEKFKGEATFTADTSSNTAYMHLSSLTTEDSAIYYCARWGDGSFAYWGQGTLVTVS VL: DIVMTQSQKFMSTSVGDRVSITCKASQNVGTAVSWYQQKPGQSPKLLIFSTSNRYTGVPDRFTGSGSGTDFTLTISNMQSEDLADYFCQQYRSYPFTFGSGTKLEIKR
